Measurements reported in PMC4406748.
No constants are given. Whether binding was seen depends on the method and setting. Binding seen in cells or lysates may run through a third protein. Some results given as binding are weak or reduced against the parent protein; the word gives no strength.

By UniProt entry, the sequences of proteins in these tests, tags left out.
UniProt O43707: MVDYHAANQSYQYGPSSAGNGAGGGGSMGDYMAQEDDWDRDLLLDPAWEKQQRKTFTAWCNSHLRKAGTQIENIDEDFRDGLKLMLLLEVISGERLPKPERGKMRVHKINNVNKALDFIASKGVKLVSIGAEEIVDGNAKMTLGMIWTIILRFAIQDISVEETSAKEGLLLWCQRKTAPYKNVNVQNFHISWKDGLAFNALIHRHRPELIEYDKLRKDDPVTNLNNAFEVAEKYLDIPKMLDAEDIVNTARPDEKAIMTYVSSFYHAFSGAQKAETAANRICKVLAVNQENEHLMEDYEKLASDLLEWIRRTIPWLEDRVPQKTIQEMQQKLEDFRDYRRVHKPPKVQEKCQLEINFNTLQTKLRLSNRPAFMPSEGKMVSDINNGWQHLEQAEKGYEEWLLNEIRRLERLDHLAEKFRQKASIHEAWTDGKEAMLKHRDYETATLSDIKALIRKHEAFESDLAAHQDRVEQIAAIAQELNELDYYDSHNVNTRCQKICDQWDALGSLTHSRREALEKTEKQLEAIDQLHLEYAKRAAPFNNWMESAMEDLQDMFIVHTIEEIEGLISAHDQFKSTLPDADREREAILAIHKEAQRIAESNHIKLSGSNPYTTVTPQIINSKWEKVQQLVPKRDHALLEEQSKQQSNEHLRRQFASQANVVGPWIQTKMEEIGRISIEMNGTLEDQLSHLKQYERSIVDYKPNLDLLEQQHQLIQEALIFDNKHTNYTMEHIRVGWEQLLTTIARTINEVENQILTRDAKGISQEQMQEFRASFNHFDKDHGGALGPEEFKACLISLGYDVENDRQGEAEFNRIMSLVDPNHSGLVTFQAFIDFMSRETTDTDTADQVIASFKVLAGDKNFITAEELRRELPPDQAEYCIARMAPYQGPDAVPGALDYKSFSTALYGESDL
UniProt P22002: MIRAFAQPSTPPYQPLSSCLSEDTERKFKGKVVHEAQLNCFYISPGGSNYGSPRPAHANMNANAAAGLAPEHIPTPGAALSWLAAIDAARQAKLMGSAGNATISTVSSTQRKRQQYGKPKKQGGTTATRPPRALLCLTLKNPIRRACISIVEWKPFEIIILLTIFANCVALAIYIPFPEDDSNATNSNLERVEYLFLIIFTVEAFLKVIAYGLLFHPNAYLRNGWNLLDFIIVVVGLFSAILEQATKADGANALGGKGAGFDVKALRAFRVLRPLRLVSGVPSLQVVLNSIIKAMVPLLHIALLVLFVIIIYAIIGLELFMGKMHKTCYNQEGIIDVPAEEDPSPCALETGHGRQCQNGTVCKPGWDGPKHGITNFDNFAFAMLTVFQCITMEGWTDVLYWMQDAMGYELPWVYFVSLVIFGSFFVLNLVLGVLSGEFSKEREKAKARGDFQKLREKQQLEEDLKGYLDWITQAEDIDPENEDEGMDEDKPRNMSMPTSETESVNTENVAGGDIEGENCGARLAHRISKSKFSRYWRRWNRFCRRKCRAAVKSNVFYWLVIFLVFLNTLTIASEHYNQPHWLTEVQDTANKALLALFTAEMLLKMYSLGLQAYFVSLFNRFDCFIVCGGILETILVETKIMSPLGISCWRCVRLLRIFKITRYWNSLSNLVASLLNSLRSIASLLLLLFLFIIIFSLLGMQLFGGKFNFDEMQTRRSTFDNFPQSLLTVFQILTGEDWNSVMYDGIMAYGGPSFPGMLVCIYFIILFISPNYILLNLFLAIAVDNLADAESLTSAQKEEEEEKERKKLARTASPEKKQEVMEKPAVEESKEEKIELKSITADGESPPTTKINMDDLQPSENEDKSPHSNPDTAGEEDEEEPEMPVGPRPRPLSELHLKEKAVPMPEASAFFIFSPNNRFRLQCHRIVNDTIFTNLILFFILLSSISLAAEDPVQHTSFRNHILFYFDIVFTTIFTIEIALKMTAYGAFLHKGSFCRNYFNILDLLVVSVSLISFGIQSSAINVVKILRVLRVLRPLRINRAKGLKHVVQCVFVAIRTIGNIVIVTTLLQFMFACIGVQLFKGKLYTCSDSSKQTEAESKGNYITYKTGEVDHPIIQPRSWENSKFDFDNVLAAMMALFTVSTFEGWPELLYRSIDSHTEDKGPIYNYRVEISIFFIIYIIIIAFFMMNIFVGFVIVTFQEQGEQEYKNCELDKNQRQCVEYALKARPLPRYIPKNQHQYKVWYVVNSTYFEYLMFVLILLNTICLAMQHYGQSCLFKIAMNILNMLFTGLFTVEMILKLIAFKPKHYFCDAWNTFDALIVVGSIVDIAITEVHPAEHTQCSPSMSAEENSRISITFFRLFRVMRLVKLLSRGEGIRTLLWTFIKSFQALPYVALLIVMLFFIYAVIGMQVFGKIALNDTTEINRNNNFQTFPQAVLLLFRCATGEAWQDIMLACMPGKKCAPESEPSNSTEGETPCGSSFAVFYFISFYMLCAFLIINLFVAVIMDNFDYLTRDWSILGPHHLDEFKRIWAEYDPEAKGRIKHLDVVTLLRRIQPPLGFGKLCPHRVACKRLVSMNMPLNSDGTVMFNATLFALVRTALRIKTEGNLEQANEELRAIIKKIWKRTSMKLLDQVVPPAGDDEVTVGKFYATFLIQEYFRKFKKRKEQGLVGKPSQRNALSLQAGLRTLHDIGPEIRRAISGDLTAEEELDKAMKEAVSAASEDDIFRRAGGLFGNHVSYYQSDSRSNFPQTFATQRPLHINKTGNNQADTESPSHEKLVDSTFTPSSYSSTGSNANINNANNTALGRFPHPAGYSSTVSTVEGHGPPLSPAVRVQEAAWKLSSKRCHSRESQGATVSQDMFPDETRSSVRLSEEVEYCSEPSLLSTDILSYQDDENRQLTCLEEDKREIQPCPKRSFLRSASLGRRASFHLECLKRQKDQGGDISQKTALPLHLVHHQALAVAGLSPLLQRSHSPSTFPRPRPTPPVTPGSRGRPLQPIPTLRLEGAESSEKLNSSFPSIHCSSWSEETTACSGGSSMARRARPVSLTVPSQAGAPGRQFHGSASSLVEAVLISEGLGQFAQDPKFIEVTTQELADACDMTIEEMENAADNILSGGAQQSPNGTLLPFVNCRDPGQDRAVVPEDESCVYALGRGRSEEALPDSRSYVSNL
UniProt Q9QXQ0: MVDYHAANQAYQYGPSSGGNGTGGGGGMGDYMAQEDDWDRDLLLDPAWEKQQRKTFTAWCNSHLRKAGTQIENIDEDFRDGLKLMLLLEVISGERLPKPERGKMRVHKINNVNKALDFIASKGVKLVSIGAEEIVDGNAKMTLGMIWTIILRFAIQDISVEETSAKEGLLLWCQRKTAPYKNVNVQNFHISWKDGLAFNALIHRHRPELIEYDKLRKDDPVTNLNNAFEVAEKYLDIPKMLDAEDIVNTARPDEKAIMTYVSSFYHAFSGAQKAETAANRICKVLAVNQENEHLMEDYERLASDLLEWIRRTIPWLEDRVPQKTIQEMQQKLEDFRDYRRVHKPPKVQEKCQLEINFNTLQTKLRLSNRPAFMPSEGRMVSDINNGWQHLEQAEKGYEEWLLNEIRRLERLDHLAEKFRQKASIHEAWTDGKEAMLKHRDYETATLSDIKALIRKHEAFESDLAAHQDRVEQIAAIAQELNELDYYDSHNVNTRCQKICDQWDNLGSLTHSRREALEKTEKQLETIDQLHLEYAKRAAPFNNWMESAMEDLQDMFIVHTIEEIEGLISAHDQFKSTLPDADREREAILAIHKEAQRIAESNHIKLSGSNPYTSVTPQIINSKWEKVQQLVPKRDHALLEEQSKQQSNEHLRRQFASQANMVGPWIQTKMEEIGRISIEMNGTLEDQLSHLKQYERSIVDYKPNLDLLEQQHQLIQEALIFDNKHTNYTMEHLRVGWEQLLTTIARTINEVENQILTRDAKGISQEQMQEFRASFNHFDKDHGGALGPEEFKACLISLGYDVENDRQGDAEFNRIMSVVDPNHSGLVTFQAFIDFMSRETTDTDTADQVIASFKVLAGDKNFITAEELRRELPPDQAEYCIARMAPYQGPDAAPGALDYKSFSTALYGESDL

Experiments:
[1] = molecular target: GST-actinin 4 fusion protein (UniProt O43707); assay: pull-down; 3 μg purified GST fusion protein on glutathione beads, incubated with 1~2 mg lysate of transfected Ros 17/2.8 cells for 2 h at 4°C; lysis buffer 1% NP40, 0.5% sodium deoxycholate, 0.1% SDS in PBS; western blot; cells untreated or treated with 20 μM forskolin for 24 h (also with 5 μM H89), or lysates treated with forskolin in vitro; only the target purified
[2] = molecular target: L-type calcium channel β3 subunit (UniProt P54287); assay: co-IP; anti-β3 subunit antibody on Protein A beads, lysate (RIPA buffer) of β3-transfected Ros 17/2.8 cells without forskolin treatment; blot with anti-actinin 4 antibody
[3] = molecular target: L-type calcium channel β3 subunit (UniProt P54287); assay: co-IP; anti-β3 subunit antibody on Protein A beads, lysate (RIPA buffer) of β3-transfected Ros 17/2.8 cells treated with 20 μM forskolin for 24 h; blot with anti-actinin 4 antibody

binding [1]	binding [3]	Substance	binding [2]
no binding	–	L-type calcium channel α1c subunit (from UniProt P22002 1-2169)	–
binds	–	L-type calcium channel β3 subunit (from UniProt P54287 1-484)	–
–	binds	actinin 4 (endogenous in Ros 17/2.8 cells) (from UniProt Q9QXQ0 1-911)	no binding (condition: cells without forskolin treatment)
